# The list is a part of this screen's results and no random one: it gathers tests that were run many times, whatever their T/C, doses with no T/C, and many T/C values between a quarter and a half above the control. Other doses and runs of a compound stand elsewhere. T/C: endpoint of the treated group in % of that of the vehicle group. Some entries give survivors of the animals treated and no T/C: the source holds a T/C of zero for them, seemingly a mark for toxic or unscored doses. Some doses without a T/C left all or most animals alive at the check, yet need not have been tolerated: survival well below the control is almost never listed, so the zero probably covers shortened survival too. Counts of survivors are from the toxicity check (mostly the fifth day) where no day follows; animals may have died later. Schedules are NCI's codes, taken here to give the interval after Q, in days (D) or hours (H), and the number of doses after X. Where survival is the endpoint, the PubChem record calls one and a half times the control and up active, and a quarter to a half above the control has no call in these data; cut-offs in other NCI protocols can differ. Some entries hold several experiments; the results are listed from low to high. Some T/C values are followed by the survivors on the day toxicity was checked, most often the fifth; where none is given, no animal had died by that day.
# Tested on: L1210 leukemia ip in BDF1 mice, survival T/C
# Assay: NCI In Vivo Anticancer Drug Screen. Data for tumor model L1210 Leukemia (intraperitoneal) in B6D2F1 (BDF1) mice
# Conditions: T/C endpoint: mean survival time, higher T/C = longer survival
# [1] = dose: 31.0 mg/kg/injection, schedule: Q01DX015 (ip), vehicle: carboxymethylcellulose (CMC)
compound,measurement,setting,value
Nc1nc(=S)c2ncn(C3CC(O)C(CO)O3)c2[nH]1 (stereo not drawn),T/C,"dose: 0.16 mg/kg/injection, schedule: Q03HX024 (ip), vehicle: saline",147 % of control
same,T/C,"dose: 0.31 mg/kg/injection, schedule: Q01DX015 (ip), vehicle: carboxymethylcellulose (CMC)",145 % of control
same,T/C,"dose: 0.32 mg/kg/injection, schedule: Q03HX008 (ip), vehicle: saline",140 % of control
same,T/C,"dose: 0.32 mg/kg/injection, schedule: Q03HX024 (ip), vehicle: saline",144 % of control
same,T/C,"dose: 0.6 mg/kg/injection, schedule: Q01DX009 (ip), vehicle: saline with Tween-80",145 % of control
same,T/C,"dose: 0.62 mg/kg/injection, schedule: Q01DX005 (ip), vehicle: clinical formulation",144 % of control
same,T/C,"dose: 0.62 mg/kg/injection, schedule: Q01DX005 (ip), vehicle: saline",140 % of control
same,T/C,"dose: 0.62 mg/kg/injection, schedule: Q01DX005 (ip), vehicle: water",144 % of control
same,T/C,"dose: 0.62 mg/kg/injection, schedule: Q03HX016 (ip), vehicle: saline",145 % of control
same,T/C,"dose: 0.63 mg/kg/injection, schedule: Q01DX015 (ip), vehicle: carboxymethylcellulose (CMC)",129 % of control
same,T/C,"dose: 0.63 mg/kg/injection, schedule: Q03HX016 (ip), vehicle: saline",146 % of control [9 of 10 alive]
same,T/C,"dose: 1.25 mg/kg/injection, schedule: Q01DX015 (ip), vehicle: carboxymethylcellulose (CMC)",149 % of control
same,T/C,"dose: 1.25 mg/kg/injection, schedule: Q04DX003 (ip), vehicle: saline",135 % of control
same,T/C,"dose: 1.35 mg/kg/injection, schedule: Q01DX009 (ip), vehicle: saline with Tween-80",147 % of control
same,T/C,"dose: 2.0 mg/kg/injection, schedule: Q01DX009 (ip), vehicle: saline with Tween-80",132 % of control
same,T/C,"dose: 2.5 mg/kg/injection, schedule: Q03HX024 (ip), vehicle: saline",125 % of control
same,T/C,"dose: 3.0 mg/kg/injection, schedule: Q01DX009 (ip), vehicle: saline with Tween-80",146 % of control
same,T/C,"dose: 3.75 mg/kg/injection, schedule: Q01DX015 (ip), vehicle: carboxymethylcellulose (CMC)",127 % of control
same,T/C,"dose: 5.0 mg/kg/injection, schedule: Q01DX001 (ip), vehicle: saline",128 % of control
same,T/C,"dose: 5.0 mg/kg/injection, schedule: Q01DX002 (ip), vehicle: Klucel (hydroxypropylcellulose) (HPC)",139 % of control
same,T/C,"dose: 5.0 mg/kg/injection, schedule: Q03HX008 (ip), vehicle: saline",145 % of control
same,T/C,"dose: 5.0 mg/kg/injection, schedule: Q03HX016 (ip), vehicle: saline",133 % of control
same,T/C,"dose: 5.0 mg/kg/injection, schedule: Q04DX003 (ip), vehicle: Klucel (hydroxypropylcellulose) (HPC)",136 % of control
same,T/C,"dose: 5.0 mg/kg/injection, schedule: Q08DX002 (ip), vehicle: saline",141 % of control
same,T/C,"dose: 5.4 mg/kg/injection, schedule: Q01DX015 (ip), vehicle: carboxymethylcellulose (CMC)",137 % of control
same,T/C,"dose: 6.25 mg/kg/injection, schedule: Q01DX009 (ip), vehicle: saline",145 % of control
same,T/C,"dose: 7.1 mg/kg/injection, schedule: Q01DX015 (ip), vehicle: carboxymethylcellulose (CMC)",137 % of control
same,T/C,"dose: 9.5 mg/kg/injection, schedule: Q01DX015 (ip), vehicle: carboxymethylcellulose (CMC)",134 % of control
same,T/C,"dose: 10.0 mg/kg/injection, schedule: Q01DX001 (ip), vehicle: saline",135 % of control
same,T/C,"dose: 10.0 mg/kg/injection, schedule: Q01DX002 (ip), vehicle: Klucel (hydroxypropylcellulose) (HPC)",138 % of control
same,survivor count,"dose: 10.0 mg/kg/injection, schedule: Q03HX016 (ip), vehicle: saline",10 of 10
same,T/C,"dose: 12.5 mg/kg/injection, schedule: Q01DX005 (ip), vehicle: saline",142 and 144 % of control
same,T/C,"dose: 12.5 mg/kg/injection, schedule: Q01DX009 (ip), vehicle: saline",145 % of control
same,T/C,"dose: 12.65 mg/kg/injection, schedule: Q01DX015 (ip), vehicle: carboxymethylcellulose (CMC)",146 % of control
same,T/C,"dose: 16.85 mg/kg/injection, schedule: Q01DX015 (ip), vehicle: carboxymethylcellulose (CMC)",137 % of control
same,T/C,"dose: 20.0 mg/kg/injection, schedule: Q01DX001 (ip), vehicle: saline",141 % of control
same,T/C,"dose: 20.0 mg/kg/injection, schedule: Q04DX003 (ip), vehicle: Klucel (hydroxypropylcellulose) (HPC)",132 % of control
same,T/C,"dose: 22.5 mg/kg/injection, schedule: Q01DX015 (ip), vehicle: carboxymethylcellulose (CMC)",132 % of control
same,T/C,"dose: 24.0 mg/kg/injection, schedule: Q01DX005 (oral), vehicle: saline",134 % of control
same,T/C,"dose: 30.0 mg/kg/injection, schedule: Q01DX015 (ip), vehicle: carboxymethylcellulose (CMC)",140 % of control
same,T/C,"dose: 30.0 mg/kg/injection, schedule: Q04DX003 (oral), vehicle: saline",136 % of control
same,T/C,[1],138 % of control
same,survivor count,[1],6 of 6
